Measurements as given in patent publication US20070142404A1, “6-(2,6-Dichlorophenyl)-triazolopyrimidines, methods for the production thereof, use thereof for controlling pathogenic fungi, and agents containing the same” (BASF Aktiengesellschaft, priority 2004, published 2007).
Some of these results come from one statement about several compounds together.

Columns and labels:
Botrytis cinerea = test: Activity against grey mold on bell pepper leaves caused by Botrytis cinerea, protective application; assay type: in vivo; details: 250 ppm, sprayed on bell pepper seedlings, inoculated next day, assessed visually after 5 days; untreated plants 90% infected
Sphaerotheca fuliginea = test: Activity against mildew on cucumber leaves caused by Sphaerotheca fuliginea, 3 day protective application; assay type: in vivo; details: 250 ppm, sprayed on cucumber seedlings, inoculated 3 days after application, assessed visually after 7 days; untreated plants 100% infected

COc1nc2ncnn2c(N2CCCC2C)c1-c1c(Cl)cccc1Cl (centres unmarked) [Compound I-1, 5-Methoxy-6-(2,6-dichlorophenyl)-7-(2-methylpyrrolidin-1-yl)-1,2,4-triazolo[1,5a]pyrimidine]
extent of the fungal infection on the leaves (Botrytis cinerea): at most 3% | infection of the cotyledon area (mildew development) (Sphaerotheca fuliginea): at most 1%
